According to PubChem BioAssay AID2685 (National Center for Advancing Translational Sciences (NCATS), 2010):
Some of the results follow. The main result of the screen is listed elsewhere. These columns were measured beside it and carry no call. The list favours compounds with an active or inconclusive main result. Potencies come from curve fits of mixed quality, noted in brackets.

Experiment: qHTS Assay for Lipid Storage Modulators in Drosophila S3 Cells;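 on cell number change: cells counted by Cell Tracker Red CMTPX staining in the red channel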
Conditions: BODIPY lipid droplet fluorescence, 18-24 h; for cell number change: measured here: cell count max response, cells fed with added oleic acid
Procedure, shortened: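 Drosophila S3 cells got compounds at several concentrations plus oleic acid (400 uM solution). Laser-scanning cytometry with 488 nm excitation read lipid droplets at 500-530 nm and cells at 575-640 nm. Percent activity was relative to 20 uM Triacsin C.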

[1] = measured here: lipid fluorescence (Fed channel) AC50, cells fed with added oleic acid
[2] = measured here: cell number channel AC50, cells fed with added oleic acid

Row | SMILES | cell number change [%] | AC50 [1] | AC50 [2]
1 | CC1(C)CC(=O)/C(=C(\O)CCCN2C(=O)c3ccccc3C2=O)C(=NCCO)C1 | 5.02 | – | –
2 | CN(c1cccc(NC(=O)CN(c2ccc(Cl)c(Cl)c2)S(=O)(=O)c2ccccc2)c1)S(C)(=O)=O | -19.2 | 18.4 µM [falling, single point] | –
3 | CN(Cc1ncc[nH]1)C(=O)CC1C(=O)NCCN1Cc1c(F)cccc1Cl (stereo not given) | 19.8 | 1.3 µM [rising, full curve, poor fit] | –
4 | Cn1c(=O)c2[nH]c(N3CCN(c4ccccn4)CC3)nc2n(C)c1=O | -0.678 | 6.51 µM [falling, single point] | –
5 | Cc1ccccc1Nc1nc(-c2sc(NC(=O)c3ccc([N+](=O)[O-])cc3)nc2C)cs1 | -29.4 | 16.4 µM [falling, partial curve] | –
6 | COc1ccc(Cl)cc1NC(=O)C(=O)N/N=C/c1cc(C)n(-c2ccc(C)cc2)c1C | 12.9 | – | –
7 | O=C(NCC1CCCO1)c1ccc(Br)c(S(=O)(=O)N2CCOCC2)c1 (stereo not given) | 4.04 | – | –
8 | CN(Cc1ccccc1)C(=O)COC(=O)c1cc(Cl)nc(Cl)c1 | -5.28 | 0.146 µM [falling, full curve, poor fit] | –
9 | CC1(c2ccc(OC(F)F)cc2)NC(=O)N(CC(=O)N2c3ccccc3NC(=O)C2(C)C)C1=O (stereo not given) | -5.69 | – | –
10 | COc1ccc(-c2nnc(SCc3cccc(C#N)c3)o2)cc1 | 14.7 | 18.4 µM [rising, single point] | –
11 | O=C(COc1ccc(F)cc1)NN1C(=O)CSC1=S | -62.8 | 23.1 µM [falling, single point] | 1.64 µM [falling, partial curve]
12 | COc1ccc(NC(=O)CN(C)CC(=O)NCCc2ccc(F)cc2)cc1 | -2.5 | – | –
13 | CCOc1ccc(C(=O)NCC(=O)NCC(c2ccc(OC)cc2)N2CCOCC2)cc1OCC (stereo not given) | 18.5 | – | –
14 | CCOC(=O)CCCNC(=O)COC(=O)/C=C/c1ccc2c(c1)OCO2 | -2.22 | – | –
15 | COc1ccc(OC)c(N=C2SCCCN2C(=O)c2ccc(N3C(=O)CCC3=O)cc2)c1 | -10.4 | 0.058 µM [falling, full curve, poor fit] | 3.26 µM [falling, single point]
16 | CCC(=O)Nc1ccc(S(=O)(=O)Nc2cc(C)on2)cc1 | -38.2 | 6.51 µM [falling, partial curve] | 29.1 µM [falling, single point]
17 | O=C(c1ccncc1)N(c1ccc2oc3c(c2c1)CCCC3)S(=O)(=O)c1ccc(F)cc1 | 34.8 | 11.6 µM [rising, partial curve] | 11.6 µM [rising, partial curve]
18 | CCN(CC(=O)Nc1ccccc1C(F)(F)F)C(=O)c1cc(S(=O)(=O)N2CCCCCC2)ccc1OC | -75 | 8.2 µM [falling, partial curve] | 29.1 µM [falling, partial curve, poor fit]
19 | CCOc1ccc(S(=O)(=O)N2CCCC(C(=O)N3CCC(C(N)=O)CC3)C2)cc1Cl (stereo not given) | 14.5 | 6.31 µM [rising, single point] | –
20 | CN(CC(=O)Nc1ccc(F)c(F)c1F)C(=O)C1=COCCO1 | -10.4 | – | –
21 | CN(CC(=O)Nc1ccc(Cl)cc1)C(=O)c1ccc(N2CCCC2=O)cc1 | 13.7 | 29.1 µM [rising, single point] | –

Row | SMILES | cell number change [%] | AC50 [1] | AC50 [2]
22 | Cc1cc(OCC(=O)N(C)Cc2ccccc2)cc(C)c1Cl | -34.9 | – | 16.4 µM [falling, single point]
23 | c1ccc(-c2nc3nonc3nc2-c2ccccc2)cc1 | -8.47 | 18.4 µM [falling, single point] | –
24 | O=C(Nc1ccc(C(=O)N2CCCCC2)cc1)c1cccs1 | 5.41 | – | –
25 | C=CCNCC(=O)Nc1sc2c(c1C(=O)Nc1ccc(OC)cc1OC)CCC2 | 133 | 0.651 µM [rising, single point] | –
26 | Cc1cc(O)c2c(CN3CCN(Cc4ccccc4)CC3)cc(=O)oc2c1 | 77.5 | 29.1 µM [rising, single point] | 16.4 µM [rising, partial curve]
27 | COc1ccc(S(=O)(=O)N2CCCCC2)cc1NC(=S)Nc1cccc(Cl)c1C | – | 0.651 µM [rising, full curve, poor fit] | –
28 | COc1cccc(NC(=O)CN2CCCCCC2)c1 | -4.4 | 0.731 µM [rising, single point] | –
29 | CCCc1cc(N2CCCC(C(=O)Nc3c(OC)cccc3OC)C2)n2ncnc2n1 (stereo not given) | 9.72 | 0.461 µM [falling, partial curve, poor fit] | –
30 | Cn1c(N)c(C(=O)CSc2nnc(-c3cccs3)n2C2CC2)c(=O)[nH]c1=O | 12 | – | –
31 | CCOc1ccc(Nc2nc(Cl)nc(NCCO)n2)cc1 | 15.1 | 1.16 µM [falling, single point] | –
32 | Nc1c(C(=O)N2CCCC2)sc2nc(-c3ccccc3)ccc12 | -25 | 16.4 µM [falling, single point] | –
33 | COc1cccc(C(=O)NNC(=O)c2ccccc2-n2cccc2)c1 | -12.9 | – | –
34 | Cc1cc(C)cc(OCc2ccc(C(=O)NN)o2)c1 | 12.5 | 1.16 µM [rising, full curve, poor fit] | –
35 | Cn1nc(C(=O)NCc2ccc(F)cc2)c2ccccc2c1=O | -0.845 | 0.326 µM [rising, full curve, poor fit] | –
36 | O=C(N/N=C/c1ccc(O)c2ccccc12)c1cccnc1 | -7.66 | – | –
37 | Cc1ccc(NC(=O)CN(C)S(=O)(=O)c2cnc[nH]2)c(C)c1 | -12.4 | 14.6 µM [falling, single point] | –
38 | Cc1ccc(CCNC(=O)CCn2ccc3cc(S(=O)(=O)N4CCCC4)ccc32)cc1 | 21.2 | – | –
39 | Nc1ccc(NC(=S)Nc2ccccc2)cc1 | 10.6 | 6.51 µM [falling, single point] | –
40 | CCOC(=O)c1cccc(NC(=O)CSc2nc3ccccc3c(=O)n2CCOC)c1 | -44.4 | 23.1 µM [falling, single point] | 29.1 µM [falling, single point]
41 | CCc1noc(C)c1C(=O)Nc1ccc(C(F)(F)F)cc1 | 19.6 | 29.1 µM [rising, single point] | –

Two consecutive compounds out of the list so far, quoted:
Row | SMILES | cell number change [%] | AC50 [1] | AC50 [2]
33 | COc1cccc(C(=O)NNC(=O)c2ccccc2-n2cccc2)c1 | -12.9 | – | –
34 | Cc1cc(C)cc(OCc2ccc(C(=O)NN)o2)c1 | 12.5 | 1.16 µM [rising, full curve, poor fit] | –

An excerpt of these results, with tabs:
Row	SMILES	cell number change [%]	AC50 [1]	AC50 [2]
29	CCCc1cc(N2CCCC(C(=O)Nc3c(OC)cccc3OC)C2)n2ncnc2n1 (stereo not given)	9.72	0.461 µM [falling, partial curve, poor fit]	–
39	Nc1ccc(NC(=S)Nc2ccccc2)cc1	10.6	6.51 µM [falling, single point]	–
